Measured values from US4492693A, “Benzothienylglycyl cephalosporin derivatives” (priority 1983, dated 1985).

Tests used:
Assay type in all cases: biochemical
Settings in all cases: lower numbers mean greater stability
[1] = test system: β-lactamase, organism TEM
Source text: (§1) The compounds of the invention also have good stability to β-lactamases.

[2] = test system: β-lactamase, organism 1082E; experiment: Stability to β-lactamase (Table V)
Source text: as §1

[3] = test system: β-lactamase, organism 265A; experiment: Stability to β-lactamase (Table V)
Source text: as §1

[4] = test system: β-lactamase, organism PS185; experiment: Stability to β-lactamase (Table V)
Source text: as §1

[5] = test system: β-lactamase, organism 1313G; experiment: Stability to β-lactamase (Table V)
Source text: as §1

SMILES: CC1=C(C(=O)O)N2C(=O)[C@@H](NC(=O)[C@H](N)c3ccccc3)[C@H]2SC1 [Cephalexin]
- Stability to β-lactamase [1]: 1
- Stability to β-lactamase [2]: 6
- Stability to β-lactamase [3]: 72
- Stability to β-lactamase [4]: 37
- Stability to β-lactamase [5]: 254
